Two substances from paper PMC4637307 can be followed below.

Sequences of proteins named here, by UniProt entry; tags and fusion partners are left off.
UniProt P17931: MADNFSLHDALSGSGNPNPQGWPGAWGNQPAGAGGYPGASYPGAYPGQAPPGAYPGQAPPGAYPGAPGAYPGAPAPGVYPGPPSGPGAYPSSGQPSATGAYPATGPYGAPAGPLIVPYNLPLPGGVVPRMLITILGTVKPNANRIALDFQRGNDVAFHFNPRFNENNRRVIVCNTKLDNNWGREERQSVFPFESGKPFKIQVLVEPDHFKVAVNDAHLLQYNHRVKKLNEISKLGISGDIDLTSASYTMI
UniProt P08183: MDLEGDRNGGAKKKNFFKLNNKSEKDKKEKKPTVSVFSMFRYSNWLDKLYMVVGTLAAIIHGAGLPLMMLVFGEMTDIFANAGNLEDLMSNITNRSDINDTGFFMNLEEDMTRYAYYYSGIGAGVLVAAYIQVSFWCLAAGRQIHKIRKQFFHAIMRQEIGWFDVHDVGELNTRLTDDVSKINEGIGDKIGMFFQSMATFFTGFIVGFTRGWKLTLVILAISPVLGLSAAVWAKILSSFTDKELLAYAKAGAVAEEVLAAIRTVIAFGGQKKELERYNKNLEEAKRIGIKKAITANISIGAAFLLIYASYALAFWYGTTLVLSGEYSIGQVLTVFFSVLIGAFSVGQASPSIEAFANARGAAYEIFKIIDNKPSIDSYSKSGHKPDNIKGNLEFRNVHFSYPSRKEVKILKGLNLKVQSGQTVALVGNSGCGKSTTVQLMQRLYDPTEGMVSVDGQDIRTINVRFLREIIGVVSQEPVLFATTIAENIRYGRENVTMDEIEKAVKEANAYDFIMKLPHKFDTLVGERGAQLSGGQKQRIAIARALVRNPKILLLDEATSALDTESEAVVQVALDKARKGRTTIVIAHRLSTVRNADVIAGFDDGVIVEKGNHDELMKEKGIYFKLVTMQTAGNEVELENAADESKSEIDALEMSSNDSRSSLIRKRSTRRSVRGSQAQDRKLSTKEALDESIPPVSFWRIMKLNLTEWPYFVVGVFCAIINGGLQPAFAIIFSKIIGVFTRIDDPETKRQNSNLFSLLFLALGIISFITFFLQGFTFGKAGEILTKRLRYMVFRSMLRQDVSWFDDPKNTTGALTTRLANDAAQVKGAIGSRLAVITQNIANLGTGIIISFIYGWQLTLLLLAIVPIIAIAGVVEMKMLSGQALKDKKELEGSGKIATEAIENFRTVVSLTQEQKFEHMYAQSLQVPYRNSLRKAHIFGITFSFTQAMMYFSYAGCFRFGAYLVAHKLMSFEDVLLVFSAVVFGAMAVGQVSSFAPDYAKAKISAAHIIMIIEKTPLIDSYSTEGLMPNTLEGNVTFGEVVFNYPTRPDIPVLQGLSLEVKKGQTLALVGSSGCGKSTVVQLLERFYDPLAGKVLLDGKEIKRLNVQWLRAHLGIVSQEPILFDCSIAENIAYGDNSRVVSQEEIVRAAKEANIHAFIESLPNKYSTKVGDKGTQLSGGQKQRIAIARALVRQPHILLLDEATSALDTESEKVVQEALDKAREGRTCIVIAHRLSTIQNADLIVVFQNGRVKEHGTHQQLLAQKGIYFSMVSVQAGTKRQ

One test has as its target recombinant Gal-3-V5 (UniProt P17931). The experiment in a line: co-IP; HT1080 cells in media lacking FBS, 0.5 micromolar rGal-3-V5 with or without 1% GCS-100/MCP for 24 h; lysates immunoprecipitated with V5 antibody, blotted for P-gp; only the target purified.
The target in test [1] is P-glycoprotein (human (endogenous in HT1080)) (UniProt P08183). Put plainly: co-IP; HT1080 cells in media lacking FBS, 0.5 micromolar rGal-3-V5 with or without 1% GCS-100/MCP for 24 h; lysates immunoprecipitated with P-gp antibody, blotted for V5; only the binder purified.

These are yes or no findings as the source states them, for the method shown. Binding seen in cells or lysates may run through a third protein. Some entries that bind do so weakly or less than the wild type.

Regarding “P-glycoprotein (from UniProt P08183 1-1280)”, the binding entry in the test with recombinant Gal-3-V5 is recorded as “binds”.

As for “recombinant Gal-3-V5 (from UniProt P17931 1-250)”, in test [1], the binding entry is “binds”.
